No constants are given. Whether binding was seen depends on the method and setting. In cells and extracts the contact can be indirect. Some binding calls cover weakened binding; strength is not graded here.
Molecular target: voltage-dependent anion-selective channel protein 1 (VDAC1), endogenous in primary cortical neurons (rat (endogenous in primary cortical neurons)) (UniProt Q9Z2L0)
Test: co-IP; primary neurons stimulated with 10 µM OxyHb for 12 h, then vehicle, EPAC-1 inhibitor ESI09 (10 µM), activator 8CPT (10 µM) or celastrol for 24 h; antibody (1 µg) overnight at 4 °C, protein A/G agarose beads, western blot; which protein was precipitated is not told

By UniProt entry, the sequences of proteins in these tests, tags left out.
UniProt Q9Z2L0: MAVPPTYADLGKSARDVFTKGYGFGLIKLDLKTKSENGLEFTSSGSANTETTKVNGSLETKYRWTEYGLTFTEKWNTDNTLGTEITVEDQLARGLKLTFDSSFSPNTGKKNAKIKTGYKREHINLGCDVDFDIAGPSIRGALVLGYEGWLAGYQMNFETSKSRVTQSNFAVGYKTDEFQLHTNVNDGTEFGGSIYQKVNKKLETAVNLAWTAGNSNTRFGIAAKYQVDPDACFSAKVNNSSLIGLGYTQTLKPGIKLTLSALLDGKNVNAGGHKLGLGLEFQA
UniProt Q9Z1C8: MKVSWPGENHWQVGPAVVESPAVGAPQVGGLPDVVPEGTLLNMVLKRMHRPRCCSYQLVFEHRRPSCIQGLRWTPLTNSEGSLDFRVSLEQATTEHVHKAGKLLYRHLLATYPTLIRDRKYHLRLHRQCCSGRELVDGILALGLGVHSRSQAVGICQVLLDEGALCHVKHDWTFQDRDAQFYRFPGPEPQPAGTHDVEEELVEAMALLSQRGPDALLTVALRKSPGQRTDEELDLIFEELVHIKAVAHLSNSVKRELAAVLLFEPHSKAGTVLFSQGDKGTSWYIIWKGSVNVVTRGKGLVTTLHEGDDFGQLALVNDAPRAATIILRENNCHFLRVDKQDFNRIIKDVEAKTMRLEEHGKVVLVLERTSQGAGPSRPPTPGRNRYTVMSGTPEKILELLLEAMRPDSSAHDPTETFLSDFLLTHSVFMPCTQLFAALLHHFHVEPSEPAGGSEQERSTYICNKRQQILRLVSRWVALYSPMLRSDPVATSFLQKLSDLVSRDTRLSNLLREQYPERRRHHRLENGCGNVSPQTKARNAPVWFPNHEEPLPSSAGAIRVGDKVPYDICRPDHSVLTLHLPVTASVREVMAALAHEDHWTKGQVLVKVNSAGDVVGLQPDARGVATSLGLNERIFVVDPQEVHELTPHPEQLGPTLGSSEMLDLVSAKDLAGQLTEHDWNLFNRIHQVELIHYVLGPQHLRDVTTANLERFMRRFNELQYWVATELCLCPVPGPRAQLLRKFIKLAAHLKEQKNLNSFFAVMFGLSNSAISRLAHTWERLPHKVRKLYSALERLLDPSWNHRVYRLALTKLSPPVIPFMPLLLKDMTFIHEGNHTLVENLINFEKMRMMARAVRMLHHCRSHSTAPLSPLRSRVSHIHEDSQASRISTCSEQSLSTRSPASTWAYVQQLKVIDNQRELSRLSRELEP

binding: binds
Substance: cAMP-activated exchange protein-1 (EPAC-1), endogenous in primary cortical neurons (from UniProt Q9Z1C8 1-926)

From paper PMC11109624, “Celastrol Ameliorates Neuronal Mitochondrial Dysfunction Induced by Intracerebral Hemorrhage via Targeting cAMP‐Activated Exchange Protein‐1” (Advanced Science, 2024)
